Assay results reported in the supplement of paper PMC10849652.
This is one part of the list.

By UniProt entry, the sequences of proteins in these tests, tags left out. Where a name states a change or a piece, a line headed by the entry shows the natural chain unless it says otherwise.
UniProt Q9UIM3: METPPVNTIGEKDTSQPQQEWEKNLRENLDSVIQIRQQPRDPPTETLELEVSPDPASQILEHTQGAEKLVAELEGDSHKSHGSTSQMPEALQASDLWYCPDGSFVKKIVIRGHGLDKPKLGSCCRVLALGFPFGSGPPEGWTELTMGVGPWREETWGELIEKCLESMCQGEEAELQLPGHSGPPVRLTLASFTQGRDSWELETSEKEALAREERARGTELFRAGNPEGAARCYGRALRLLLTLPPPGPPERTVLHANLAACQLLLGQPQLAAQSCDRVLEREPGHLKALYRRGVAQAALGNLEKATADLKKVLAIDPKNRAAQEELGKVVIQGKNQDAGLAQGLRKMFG
UniProt Q8WVX9: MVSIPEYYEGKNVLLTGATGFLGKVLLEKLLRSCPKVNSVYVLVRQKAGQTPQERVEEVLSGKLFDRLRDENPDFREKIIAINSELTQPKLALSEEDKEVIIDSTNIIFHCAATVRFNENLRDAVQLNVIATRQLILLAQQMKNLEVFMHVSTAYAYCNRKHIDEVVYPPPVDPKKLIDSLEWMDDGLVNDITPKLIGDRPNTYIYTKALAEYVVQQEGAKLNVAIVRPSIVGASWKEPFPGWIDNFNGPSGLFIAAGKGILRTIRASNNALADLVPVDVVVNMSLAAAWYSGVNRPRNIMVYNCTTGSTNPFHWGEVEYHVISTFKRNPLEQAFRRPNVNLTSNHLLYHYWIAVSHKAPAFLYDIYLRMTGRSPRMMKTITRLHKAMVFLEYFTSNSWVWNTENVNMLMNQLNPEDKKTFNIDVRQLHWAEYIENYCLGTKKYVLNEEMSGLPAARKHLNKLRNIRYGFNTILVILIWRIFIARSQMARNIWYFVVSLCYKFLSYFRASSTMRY
UniProt Q13045: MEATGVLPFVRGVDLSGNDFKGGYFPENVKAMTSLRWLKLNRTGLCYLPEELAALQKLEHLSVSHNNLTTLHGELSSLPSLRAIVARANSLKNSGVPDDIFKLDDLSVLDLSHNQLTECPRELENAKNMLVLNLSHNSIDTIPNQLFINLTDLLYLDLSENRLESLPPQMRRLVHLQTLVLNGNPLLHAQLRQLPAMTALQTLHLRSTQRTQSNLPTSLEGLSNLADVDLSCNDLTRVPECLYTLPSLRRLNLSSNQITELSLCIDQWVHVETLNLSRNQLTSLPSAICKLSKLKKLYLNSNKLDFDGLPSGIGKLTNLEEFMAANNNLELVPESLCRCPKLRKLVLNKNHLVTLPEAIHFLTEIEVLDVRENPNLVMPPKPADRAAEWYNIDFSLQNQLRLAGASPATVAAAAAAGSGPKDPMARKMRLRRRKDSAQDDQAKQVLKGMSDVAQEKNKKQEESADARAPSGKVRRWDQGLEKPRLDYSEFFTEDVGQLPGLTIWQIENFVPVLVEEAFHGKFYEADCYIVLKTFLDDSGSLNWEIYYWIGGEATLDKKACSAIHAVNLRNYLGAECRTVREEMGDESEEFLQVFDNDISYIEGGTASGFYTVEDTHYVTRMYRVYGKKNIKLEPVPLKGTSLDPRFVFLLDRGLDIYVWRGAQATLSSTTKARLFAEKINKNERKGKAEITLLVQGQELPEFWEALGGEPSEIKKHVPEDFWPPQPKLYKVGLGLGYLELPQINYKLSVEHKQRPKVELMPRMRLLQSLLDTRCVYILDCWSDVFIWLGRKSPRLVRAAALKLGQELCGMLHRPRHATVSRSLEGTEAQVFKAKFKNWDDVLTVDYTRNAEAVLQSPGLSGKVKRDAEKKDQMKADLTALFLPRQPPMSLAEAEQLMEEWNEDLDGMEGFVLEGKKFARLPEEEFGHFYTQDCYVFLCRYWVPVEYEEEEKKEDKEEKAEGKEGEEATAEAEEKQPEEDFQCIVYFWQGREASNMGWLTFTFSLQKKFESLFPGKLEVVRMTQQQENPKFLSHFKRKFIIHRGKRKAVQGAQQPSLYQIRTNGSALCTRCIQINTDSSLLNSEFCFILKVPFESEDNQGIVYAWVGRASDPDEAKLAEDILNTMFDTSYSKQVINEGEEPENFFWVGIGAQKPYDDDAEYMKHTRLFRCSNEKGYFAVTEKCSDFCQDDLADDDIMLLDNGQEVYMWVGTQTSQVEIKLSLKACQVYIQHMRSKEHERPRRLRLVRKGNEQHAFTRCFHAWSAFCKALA
UniProt Q9NRD1: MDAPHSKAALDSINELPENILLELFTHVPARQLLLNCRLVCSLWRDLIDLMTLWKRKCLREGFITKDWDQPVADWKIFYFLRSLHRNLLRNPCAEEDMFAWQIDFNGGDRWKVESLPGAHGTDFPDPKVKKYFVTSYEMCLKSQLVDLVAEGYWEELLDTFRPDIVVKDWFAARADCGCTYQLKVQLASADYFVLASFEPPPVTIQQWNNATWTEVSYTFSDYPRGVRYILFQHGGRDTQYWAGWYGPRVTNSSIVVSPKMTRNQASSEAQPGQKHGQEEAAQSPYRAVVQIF
UniProt Q6ZV73: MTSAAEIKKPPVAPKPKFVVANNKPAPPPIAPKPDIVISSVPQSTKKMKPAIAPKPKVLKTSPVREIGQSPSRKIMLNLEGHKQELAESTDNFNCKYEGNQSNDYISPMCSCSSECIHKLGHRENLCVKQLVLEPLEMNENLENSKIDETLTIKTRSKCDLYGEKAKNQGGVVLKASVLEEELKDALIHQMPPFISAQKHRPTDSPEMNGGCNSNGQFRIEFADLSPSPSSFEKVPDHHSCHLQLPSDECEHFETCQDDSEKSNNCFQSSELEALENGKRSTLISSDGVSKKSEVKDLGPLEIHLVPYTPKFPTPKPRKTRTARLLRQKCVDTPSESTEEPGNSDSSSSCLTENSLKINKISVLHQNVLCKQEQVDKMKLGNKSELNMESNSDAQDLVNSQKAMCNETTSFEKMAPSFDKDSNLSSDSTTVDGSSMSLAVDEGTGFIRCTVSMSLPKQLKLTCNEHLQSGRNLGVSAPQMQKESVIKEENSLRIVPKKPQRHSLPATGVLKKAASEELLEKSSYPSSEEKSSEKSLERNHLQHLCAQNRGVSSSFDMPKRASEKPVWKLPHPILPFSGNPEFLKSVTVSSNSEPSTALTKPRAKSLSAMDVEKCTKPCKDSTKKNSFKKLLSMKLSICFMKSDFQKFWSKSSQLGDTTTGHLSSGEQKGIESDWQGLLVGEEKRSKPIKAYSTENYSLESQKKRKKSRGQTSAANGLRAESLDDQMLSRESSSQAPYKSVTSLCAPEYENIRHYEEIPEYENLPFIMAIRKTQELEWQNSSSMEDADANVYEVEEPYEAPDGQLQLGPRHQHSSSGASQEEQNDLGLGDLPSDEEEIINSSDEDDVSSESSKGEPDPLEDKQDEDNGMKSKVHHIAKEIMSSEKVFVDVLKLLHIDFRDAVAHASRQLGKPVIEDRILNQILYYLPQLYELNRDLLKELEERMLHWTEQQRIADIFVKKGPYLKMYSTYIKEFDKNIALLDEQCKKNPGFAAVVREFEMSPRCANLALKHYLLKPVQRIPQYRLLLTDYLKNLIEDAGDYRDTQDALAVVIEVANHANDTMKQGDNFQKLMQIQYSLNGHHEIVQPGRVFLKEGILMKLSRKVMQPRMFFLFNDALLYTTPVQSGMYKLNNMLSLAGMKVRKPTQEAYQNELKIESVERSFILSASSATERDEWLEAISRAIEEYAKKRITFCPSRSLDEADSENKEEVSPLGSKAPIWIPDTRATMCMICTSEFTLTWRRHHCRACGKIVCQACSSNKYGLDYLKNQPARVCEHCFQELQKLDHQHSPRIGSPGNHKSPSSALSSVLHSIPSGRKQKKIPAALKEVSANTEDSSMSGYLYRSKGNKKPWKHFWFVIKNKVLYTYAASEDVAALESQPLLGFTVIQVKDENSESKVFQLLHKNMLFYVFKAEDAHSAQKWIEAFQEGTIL
UniProt Q8NFF5: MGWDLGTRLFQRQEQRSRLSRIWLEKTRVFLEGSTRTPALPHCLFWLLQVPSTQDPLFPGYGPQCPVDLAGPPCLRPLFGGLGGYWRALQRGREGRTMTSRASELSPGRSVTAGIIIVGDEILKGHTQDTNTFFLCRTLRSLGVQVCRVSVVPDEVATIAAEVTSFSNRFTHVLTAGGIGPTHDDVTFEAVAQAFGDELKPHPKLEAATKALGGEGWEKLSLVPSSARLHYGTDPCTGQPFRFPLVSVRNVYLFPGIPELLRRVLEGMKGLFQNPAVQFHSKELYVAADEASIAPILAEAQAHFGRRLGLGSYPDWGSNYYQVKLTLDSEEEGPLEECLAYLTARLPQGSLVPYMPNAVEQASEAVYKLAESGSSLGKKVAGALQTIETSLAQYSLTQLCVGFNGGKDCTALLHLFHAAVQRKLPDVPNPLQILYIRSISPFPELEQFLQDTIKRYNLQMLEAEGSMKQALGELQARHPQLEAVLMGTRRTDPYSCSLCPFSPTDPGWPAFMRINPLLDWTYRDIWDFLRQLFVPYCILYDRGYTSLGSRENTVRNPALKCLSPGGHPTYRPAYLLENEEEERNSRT
UniProt Q5XUX1: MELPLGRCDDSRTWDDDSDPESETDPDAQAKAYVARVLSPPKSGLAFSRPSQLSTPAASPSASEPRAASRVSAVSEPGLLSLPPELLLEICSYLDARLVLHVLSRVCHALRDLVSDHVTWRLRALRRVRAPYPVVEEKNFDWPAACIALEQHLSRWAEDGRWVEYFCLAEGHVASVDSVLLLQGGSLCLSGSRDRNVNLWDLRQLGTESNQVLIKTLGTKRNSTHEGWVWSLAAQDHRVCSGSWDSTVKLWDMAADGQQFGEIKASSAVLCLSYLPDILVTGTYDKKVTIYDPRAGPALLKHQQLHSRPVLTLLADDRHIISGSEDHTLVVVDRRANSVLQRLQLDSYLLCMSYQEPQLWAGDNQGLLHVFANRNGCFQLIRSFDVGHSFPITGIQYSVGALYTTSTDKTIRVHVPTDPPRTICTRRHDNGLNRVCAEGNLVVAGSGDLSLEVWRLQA
UniProt Q9NXK8: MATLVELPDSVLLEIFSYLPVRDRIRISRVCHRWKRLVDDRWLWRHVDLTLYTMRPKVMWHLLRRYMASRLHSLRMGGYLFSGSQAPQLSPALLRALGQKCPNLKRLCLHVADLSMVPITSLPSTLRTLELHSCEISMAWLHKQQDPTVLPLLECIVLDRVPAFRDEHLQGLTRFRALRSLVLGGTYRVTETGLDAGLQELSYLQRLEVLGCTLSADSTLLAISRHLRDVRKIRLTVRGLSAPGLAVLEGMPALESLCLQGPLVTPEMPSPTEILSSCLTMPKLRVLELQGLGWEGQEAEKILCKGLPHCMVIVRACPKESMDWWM
UniProt P26885: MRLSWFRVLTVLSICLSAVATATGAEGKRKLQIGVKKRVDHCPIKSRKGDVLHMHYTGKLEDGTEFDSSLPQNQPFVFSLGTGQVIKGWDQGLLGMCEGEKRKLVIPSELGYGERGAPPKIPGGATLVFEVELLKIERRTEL
UniProt Q5T0N5: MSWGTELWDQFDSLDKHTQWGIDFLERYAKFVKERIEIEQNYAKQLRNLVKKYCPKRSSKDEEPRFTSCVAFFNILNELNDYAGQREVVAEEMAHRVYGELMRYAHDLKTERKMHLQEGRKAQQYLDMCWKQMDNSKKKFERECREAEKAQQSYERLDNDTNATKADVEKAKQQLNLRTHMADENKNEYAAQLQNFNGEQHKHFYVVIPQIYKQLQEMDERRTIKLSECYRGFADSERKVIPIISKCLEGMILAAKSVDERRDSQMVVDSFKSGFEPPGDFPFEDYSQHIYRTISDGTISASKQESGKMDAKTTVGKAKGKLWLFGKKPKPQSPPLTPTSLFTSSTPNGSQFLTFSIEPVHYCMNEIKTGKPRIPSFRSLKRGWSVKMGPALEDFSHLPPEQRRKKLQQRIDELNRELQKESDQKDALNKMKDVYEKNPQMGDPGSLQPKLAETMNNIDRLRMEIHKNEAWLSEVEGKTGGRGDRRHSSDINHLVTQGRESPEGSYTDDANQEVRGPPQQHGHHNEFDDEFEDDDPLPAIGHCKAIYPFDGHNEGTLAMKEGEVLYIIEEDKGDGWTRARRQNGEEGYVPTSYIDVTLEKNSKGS
UniProt Q8NFG4: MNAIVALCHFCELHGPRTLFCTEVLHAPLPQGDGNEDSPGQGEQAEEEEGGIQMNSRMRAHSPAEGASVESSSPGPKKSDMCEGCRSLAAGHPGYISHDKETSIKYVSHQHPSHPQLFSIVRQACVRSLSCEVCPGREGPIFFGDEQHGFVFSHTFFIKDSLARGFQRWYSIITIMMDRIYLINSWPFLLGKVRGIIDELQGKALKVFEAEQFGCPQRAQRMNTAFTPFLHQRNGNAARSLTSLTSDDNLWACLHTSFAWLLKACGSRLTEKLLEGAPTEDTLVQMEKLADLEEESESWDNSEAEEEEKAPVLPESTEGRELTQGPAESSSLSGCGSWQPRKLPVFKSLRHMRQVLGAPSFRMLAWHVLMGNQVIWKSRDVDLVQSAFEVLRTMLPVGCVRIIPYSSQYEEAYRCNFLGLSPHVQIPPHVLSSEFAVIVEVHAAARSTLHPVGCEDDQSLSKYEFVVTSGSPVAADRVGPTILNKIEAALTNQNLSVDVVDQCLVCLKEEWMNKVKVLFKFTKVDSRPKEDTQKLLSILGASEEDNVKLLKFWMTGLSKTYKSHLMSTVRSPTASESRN

Compound: CS(=O)(=O)CCNCc1ccc(-c2ccc3ncnc(Nc4ccc(OCc5cccc(F)c5)c(Cl)c4)c3c2)o1 [lapatinib]
Assay: log2 fold change, soluble protein after heating vs DMSO (PISA); higher = thermal stabilisation; K562 lysate, 10 uM; active = over 0.2 and 3.5 SD of the protein, either way, in both replicates (recomputed)
Summary of the method: (§1)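 Values give the log-two fold change in thermal stability against solvent controls, from duplicates. Crude K562 extract at 1 mg/mL protein, made by dounce homogenisation in PBS pH 7.4 with 1 mM MgCl2, was treated with 10 μM compound for 30 min. After 3 min heating across 48°C-58°C, aliquots were pooled, adjusted to 0.5% NP-40 at 4°C and centrifuged at 21,000xg for 90 min. The supernatant was measured by TMTpro 16plex LC-MS/MS with channel sums equalised.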

Target | log2 fold change
FKBPL (UniProt Q9UIM3) | inactive: -0.016
FAR1 (UniProt Q8WVX9) | inactive: 0.06
FLII (UniProt Q13045) | inactive: 0.004
FAU (UniProt E9PR30) | inactive: -0.018
FGFR1OP (UniProt O95684) | inactive: 0.001
FNTB (UniProt P49356) | inactive: 0.027
FBXO6 (UniProt Q9NRD1) | inactive: -0.002
FGD6 (UniProt Q6ZV73) | inactive: 0.673
FLAD1 (UniProt Q8NFF5) | inactive: 0.007
FLNC (UniProt Q14315) | inactive: -0.009
FAM8A1 (UniProt Q9UBU6) | inactive: -0.055
FBXW9 (UniProt Q5XUX1) | inactive: -0.028
FAM98C (UniProt Q17RN3) | inactive: 0.28
FIBP (UniProt O43427) | inactive: -0.016
FBXL12 (UniProt Q9NXK8) | inactive: 0.009
FBLL1 (UniProt A6NHQ2) | inactive: 0.014
FN1 (UniProt P02751) | inactive: 0.001

Target | log2 fold change
FECH isoform 2 (UniProt P22830) | inactive: -0.099
FAM98A (UniProt Q8NCA5) | inactive: 0.001
FASN (UniProt P49327) | inactive: -0.008
FKBP2 (UniProt P26885) | inactive: 0.031
FMNL1 isoform 3 (UniProt O95466) | inactive: 0.058
FKBP8 isoform 2 (UniProt Q14318) | inactive: -0.041
FBXL18 isoform 4 (UniProt Q96ME1) | inactive: 0.004
FKBP5 (UniProt Q13451) | inactive: -0.023
FDXR isoform 7 (UniProt P22570) | inactive: 0.016
FLNB isoform 8 (UniProt O75369) | inactive: -0.005
FBXL8 (UniProt Q96CD0) | inactive: -0.024
FERMT3 (UniProt Q86UX7) | inactive: -0.01
FNBP1L (UniProt Q5T0N5) | inactive: 0.005
FBXO3 (UniProt Q9UK99) | inactive: -0.028
FEZ2 isoform 2 (UniProt Q9UHY8) | inactive: -0.032
FLCN (UniProt Q8NFG4) | inactive: -0.039

Compound: CS(=O)(=O)N1CCN(Cc2cc3nc(-c4cccc5[nH]ncc45)nc(N4CCOCC4)c3s2)CC1 [pictilisib]
Assay: as above
Summary of the method: as §1

Target | log2 fold change
FKBPL (UniProt Q9UIM3) | inactive: 0.013
FAR1 (UniProt Q8WVX9) | inactive: 0.012
FLII (UniProt Q13045) | inactive: 0.01
FAU (UniProt E9PR30) | inactive: 0.02
FGFR1OP (UniProt O95684) | inactive: -0.016
FNTB (UniProt P49356) | inactive: -0.052
FBXO6 (UniProt Q9NRD1) | inactive: -0.024
FGD6 (UniProt Q6ZV73) | inactive: 0.468
FLAD1 (UniProt Q8NFF5) | inactive: 0.002
FLNC (UniProt Q14315) | inactive: -0.011
FAM8A1 (UniProt Q9UBU6) | inactive: -0.117
FBXW9 (UniProt Q5XUX1) | inactive: 0.029
FAM98C (UniProt Q17RN3) | inactive: -0.099
FIBP (UniProt O43427) | inactive: -0.074
FBXL12 (UniProt Q9NXK8) | inactive: 0.028
FBLL1 (UniProt A6NHQ2) | inactive: -0.076
FN1 (UniProt P02751) | inactive: -0.059

Target | log2 fold change
FECH isoform 2 (UniProt P22830) | inactive: 0.64
FAM98A (UniProt Q8NCA5) | inactive: -0.024
FASN (UniProt P49327) | inactive: 0.003
FKBP2 (UniProt P26885) | inactive: -0.014
FMNL1 isoform 3 (UniProt O95466) | inactive: 0.005
FKBP8 isoform 2 (UniProt Q14318) | inactive: -0.036
FBXL18 isoform 4 (UniProt Q96ME1) | inactive: -0.022
FKBP5 (UniProt Q13451) | inactive: 0.005
FDXR isoform 7 (UniProt P22570) | inactive: -0.034
FLNB isoform 8 (UniProt O75369) | inactive: -0.016
FBXL8 (UniProt Q96CD0) | inactive: 0.008
FERMT3 (UniProt Q86UX7) | inactive: 0.002
FNBP1L (UniProt Q5T0N5) | inactive: 0
FBXO3 (UniProt Q9UK99) | inactive: -0.036
FEZ2 isoform 2 (UniProt Q9UHY8) | inactive: -0.02
FLCN (UniProt Q8NFG4) | inactive: 0.009

Compound: C[C@@H](Oc1cc(-c2cnn(C3CCNCC3)c2)cnc1N)c1c(Cl)ccc(F)c1Cl [crizotinib]
Assay: as above
Summary of the method: as §1

Target | log2 fold change
FKBPL (UniProt Q9UIM3) | inactive: -0.031
FAR1 (UniProt Q8WVX9) | inactive: -0.112
FLII (UniProt Q13045) | inactive: -0.051
FAU (UniProt E9PR30) | inactive: -0.055
FGFR1OP (UniProt O95684) | inactive: -0.007
FNTB (UniProt P49356) | inactive: 0.032
FBXO6 (UniProt Q9NRD1) | inactive: 0.028
FGD6 (UniProt Q6ZV73) | inactive: -0.108
FLAD1 (UniProt Q8NFF5) | inactive: -0.024
FLNC (UniProt Q14315) | inactive: 0.013
FAM8A1 (UniProt Q9UBU6) | inactive: 0.039
FBXW9 (UniProt Q5XUX1) | inactive: -0.138
FAM98C (UniProt Q17RN3) | inactive: 0.005
FIBP (UniProt O43427) | inactive: -0.08
FBXL12 (UniProt Q9NXK8) | inactive: -0.047
FBLL1 (UniProt A6NHQ2) | inactive: -0.041
FN1 (UniProt P02751) | inactive: -0.029

Target | log2 fold change
FECH isoform 2 (UniProt P22830) | inactive: 0.027
FAM98A (UniProt Q8NCA5) | inactive: 0.007
FASN (UniProt P49327) | inactive: -0.013
FKBP2 (UniProt P26885) | inactive: 0.083
FMNL1 isoform 3 (UniProt O95466) | inactive: -0.013
FKBP8 isoform 2 (UniProt Q14318) | inactive: -0.12
FBXL18 isoform 4 (UniProt Q96ME1) | inactive: 0.009
FKBP5 (UniProt Q13451) | inactive: -0.008
FDXR isoform 7 (UniProt P22570) | inactive: -0.024
FLNB isoform 8 (UniProt O75369) | inactive: -0.005
FBXL8 (UniProt Q96CD0) | inactive: -0.05
FERMT3 (UniProt Q86UX7) | inactive: -0.002
FNBP1L (UniProt Q5T0N5) | inactive: -0.039
FBXO3 (UniProt Q9UK99) | inactive: -0.02
FEZ2 isoform 2 (UniProt Q9UHY8) | inactive: -0.039
FLCN (UniProt Q8NFG4) | inactive: -0.025
